Some of the results follow. The main result of the screen is listed elsewhere. These columns were measured beside it and carry no call. Compounds called inactive in the main read-out are mostly missing here. Potencies come from curve fits of mixed quality, noted in brackets.
Test: qHTS Assay for Lipid Storage Modulators in Drosophila S3 Cells;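 on cell number change: cells counted by Cell Tracker Red CMTPX staining in the red channel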
Conditions: BODIPY lipid droplet fluorescence, 18-24 h; for cell number change: measured here: cell count max response, cells fed with added oleic acid
Outline: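 Drosophila S3 cells got compounds at several concentrations plus oleic acid (400 uM solution). Laser-scanning cytometry with 488 nm excitation read lipid droplets at 500-530 nm and cells at 575-640 nm. Percent activity was relative to 20 uM Triacsin C.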

[1] = measured here: lipid fluorescence (Fed channel) AC50, cells fed with added oleic acid
[2] = measured here: cell number channel AC50, cells fed with added oleic acid

Cc1ccc(N(CC(O)CN2CCOCC2)S(=O)(=O)c2ccc([N+](=O)[O-])cc2)cc1 (stereo not given)
cell number change: -1.61%

O=C(N/N=C/c1ccccn1)c1cccs1
AC50 [1]: 0.82 µM [falling, full curve]

O=C(CSc1n[nH]c(-c2ccccc2)n1)Nc1ccc(F)cc1F
cell number change: -12.7%
AC50 [2]: 0.0231 µM [falling, full curve, poor fit]

CSc1ccccc1Sc1cc(C(=O)O)c2ccccc2n1
cell number change: 19.5%
AC50 [1]: 13 µM [rising, partial curve]

Cc1cccc(C)c1OC(=O)CN(c1ccc(Cl)cc1)S(C)(=O)=O
cell number change: 107%
AC50 [2]: 11.6 µM [rising, partial curve, poor fit]
AC50 [1]: 23.1 µM [rising, partial curve]

Cc1ccc(N(C(=O)c2csnn2)C(C(=O)NCc2ccccc2)c2ccccn2)cc1 (stereo not given)
cell number change: -12.4%
AC50 [1]: 29.1 µM [falling, single point]

CCCNCC1COc2ccccc2O1 (stereo not given)
cell number change: -45.2%
AC50 [2]: 18.4 µM [falling, single point]
AC50 [1]: 16.4 µM [rising, single point]

Cc1ccc2oc(-c3cccc(NC(=O)c4cc(-n5cnnc5)ccc4Cl)c3)nc2c1
cell number change: -76.6%
AC50 [2]: 11.6 µM [falling, partial curve]
AC50 [1]: 16.4 µM [falling, partial curve]

O=C(Nc1ccc(Br)c(C(F)(F)F)c1)c1ccccc1
cell number change: -9.23%

CCOC(=O)c1c(NC(=O)CSc2nc3ccccc3o2)sc(C)c1C
cell number change: -0.445%

Clc1ccc(/C=N/Nc2ncnc3ccccc23)cc1Cl
cell number change: -1.76%
AC50 [1]: 6.51 µM [rising, partial curve]

N#Cc1ccccc1S(=O)(=O)N1CCN(C(=O)CCC2CCCC2)CC1
cell number change: 9.46%

Cc1cn[nH]c1
cell number change: -7.74%
AC50 [1]: 20.6 µM [falling, single point]

O=C(/C=C/c1ccc(O)c(O)c1)c1ccc(S(=O)(=O)N2CCCCCC2)cc1
cell number change: -22.3%
AC50 [1]: 3.66 µM [falling, full curve, poor fit]

COc1ccccc1C1CC(c2cccc(NS(C)(=O)=O)c2)=NN1S(=O)(=O)c1ccccc1 (stereo not given)
AC50 [2]: 1.46 µM [falling, single point]
AC50 [1]: 2.31 µM [falling, partial curve]

COc1ccc(C(NC(=O)C(C)C)c2ccc3cccnc3c2O)cc1 (stereo not given)
cell number change: 2.06%
AC50 [2]: 6.51 µM [rising, single point]

Cc1ccc(Cl)cc1N1CCN(C(=O)C2(S(=O)(=O)c3ccc(Cl)cc3)CC2)CC1
cell number change: 68.2%
AC50 [2]: 11.6 µM [rising, partial curve, poor fit]
AC50 [1]: 18.4 µM [rising, partial curve]

Cc1oc2cc3oc(=O)c(CC(=O)NCC(=O)N[C@@H](C(=O)O)c4ccccc4)c(C)c3cc2c1C
cell number change: -3.08%
AC50 [1]: 1.64 µM [falling, partial curve, poor fit]

CC(OC(=O)Cc1ccsc1)C(=O)Nc1ccc(Cl)cn1 (stereo not given)
AC50 [1]: 6.51 µM [falling, single point]

CCCc1nc2c(=O)n(C)c(=O)nc-2n(C)n1
cell number change: -58.3%
AC50 [1]: 0.058 µM [falling, full curve, poor fit]

Cc1ccc(C(=O)CCS(=O)(=O)c2ccc(Cl)cc2)cc1
cell number change: 4.27%
AC50 [1]: 0.282 µM [falling, full curve, poor fit]

CCOc1cc(/C=N/NS(=O)(=O)c2ccc(OC)cc2)ccc1OCCN1CCOCC1
cell number change: 12.8%

COc1cc2ccccc2cc1C(=O)NC1CCCCC1
cell number change: -14.4%
AC50 [1]: 0.231 µM [falling, full curve, poor fit]

Clc1cccc(-c2nnc3n2CCCCC3)c1
cell number change: -17.9%
AC50 [2]: 2.06 µM [rising, partial curve, poor fit]

Cc1ccccc1NC(=S)N(CCN1CCOCC1)Cc1ccccc1F
cell number change: -11.1%

Cc1cc(Cl)ccc1OCCCC(=O)OCC(N)=O
cell number change: -42.5%
AC50 [2]: 6.51 µM [falling, single point]

Cc1cc(C)c2[nH]c(=O)c(C(c3nnnn3C(C)(C)C)N3CCN(C(=O)c4ccco4)CC3)cc2c1 (stereo not given)
cell number change: 32.9%
AC50 [2]: 9.2 µM [rising, partial curve]
AC50 [1]: 3.26 µM [rising, single point]

COc1ccc(NC2=NC(=S)N(c3ccccc3C)C23CCCCC3)cc1
cell number change: 4.25%
AC50 [1]: 0.13 µM [falling, full curve, poor fit]

Cc1cc(OCC(=O)OCC(=O)NC2CCCC2)ccc1Cl
cell number change: 30.6%
AC50 [2]: 29.1 µM [rising, single point]
AC50 [1]: 23.1 µM [rising, single point]

Cc1scc(C(=O)N/N=C/c2ccc([N+](=O)[O-])o2)c1C
cell number change: -48.8%
AC50 [2]: 14.6 µM [falling, partial curve]
AC50 [1]: 20.6 µM [falling, partial curve]

CC(C)CNC(=O)C(=O)NCC(c1ccc2c(c1)OCO2)N1CCOCC1 (stereo not given)
cell number change: -16.7%
AC50 [1]: 29.1 µM [rising, single point]

COc1ccccc1CN1CCCC(CN(CCN(C)C)C(=O)c2ccc(C)cc2)C1 (stereo not given)
cell number change: 13.2%

c1ccc(-c2nc(NCCCN3CCOCC3)c3ccccc3n2)cc1
cell number change: 110%
AC50 [1]: 5.17 µM [rising, partial curve]

Cc1nc(C)c(C(=O)Nc2cccc(C)c2C)o1
cell number change: 6.54%
AC50 [1]: 9.2 µM [rising, partial curve]

Cn1c(C(=O)c2ccccc2)nc2ccccc21
cell number change: -1.39%
AC50 [1]: 29.1 µM [falling, single point]

Cc1ccc(-c2nc3cccnc3s2)cc1NC(=O)C1c2ccccc2Oc2ccccc21
cell number change: 4.34%
AC50 [1]: 29.1 µM [falling, single point]

CCC1(c2ccccc2)NC(=O)N(CC(=O)Nc2cc(S(=O)(=O)N3CCCCC3)ccc2N(C)C)C1=O (stereo not given)
cell number change: -13.7%

O=C(O)c1cc2ncc(CCO)cn2n1
cell number change: -11.2%
AC50 [2]: 0.146 µM [falling, full curve, poor fit]

S=c1nc(-c2ccccc2Cl)[nH][nH]1
cell number change: 11.1%
AC50 [1]: 0.731 µM [falling, single point]

CCOc1ccc(CCNC(=O)CN2C(=O)NC(CCSC)C2=O)cc1OCC (stereo not given)
cell number change: -43.4%
AC50 [2]: 0.116 µM [falling, full curve, poor fit]
AC50 [1]: 20.6 µM [falling, partial curve]

CCOC(=O)c1ccc2nc(NC(NC(C)=O)(C(=O)OC)C(F)(F)F)sc2c1 (stereo not given)
cell number change: -23.8%
AC50 [1]: 0.82 µM [falling, full curve]

CSc1nsc(SCC(=O)Nc2ccc3c(c2)OCCO3)n1
cell number change: 22.5%
AC50 [1]: 2.59 µM [rising, partial curve]

CC1CC(C)CN(CC(=O)c2c[nH]c3ccccc23)C1 (stereo not given)
cell number change: 32.4%
AC50 [2]: 20.6 µM [rising, single point]
AC50 [1]: 20.6 µM [rising, single point]

Cc1ccc(C(=O)NC2CCN(C(=O)Nc3ccccc3)CC2)cc1
cell number change: 26.2%
AC50 [1]: 29.1 µM [rising, single point]

Cc1cccc(C)c1OCC(=O)Nc1c(C)nn(C)c1C
cell number change: 19%
AC50 [2]: 3.26 µM [rising, single point]

CCOC(=O)N1CCN(c2nc3ccc(C)cc3n3cnnc23)CC1
cell number change: 2.78%
AC50 [1]: 6.51 µM [rising, single point]

Cc1nn(-c2ccccc2)c(=S)n1-c1ccccc1
AC50 [1]: 25.9 µM [falling, partial curve]

O=C(/C=C/c1ccccc1Cl)Nc1cccnc1
cell number change: -15.1%
AC50 [1]: 29.1 µM [falling, single point]

CCC(C(=O)Nc1cc(Cl)ccc1OC)c1ccccc1 (stereo not given)
cell number change: 33.6%
AC50 [2]: 8.2 µM [rising, partial curve]
AC50 [1]: 13 µM [rising, partial curve]

Cc1cc(C)nc(SCC(=O)N/N=C/c2cccnc2)n1
cell number change: 4.34%
AC50 [1]: 0.13 µM [falling, full curve, poor fit]

COc1cccc(CCNC(=O)c2cccc(NC(=O)C3=C(C)OCCS3)c2)c1
cell number change: -14.3%
AC50 [1]: 13 µM [falling, partial curve]

O=C(CCn1cnnn1)Nc1ccc(F)cc1
cell number change: -36.6%
AC50 [2]: 1.84 µM [falling, full curve, poor fit]
AC50 [1]: 2.06 µM [falling, full curve, poor fit]

COc1c(F)c(F)c(C(=O)Nc2ccc3oc(-c4ccncc4)nc3c2)c(F)c1F
cell number change: 16.4%
AC50 [1]: 0.13 µM [rising, full curve, poor fit]

CC(C)CCN1CCN(CCCc2ccccc2)CC1CCO (stereo not given)
cell number change: -1.76%
AC50 [1]: 0.00461 µM [falling, full curve, poor fit]

COc1cccc(S(=O)(=O)NCc2ccc(C(=O)N3CCN(c4ccccc4)CC3)cc2)c1
cell number change: -18.8%
AC50 [1]: 0.00461 µM [falling, full curve, poor fit]

COc1ccc2c(c1OC)C(=O)N1C2SC(C)(C)[C@H]1C(=O)NC1CC1 (stereo not given in full)
cell number change: 39.2%
AC50 [1]: 29.1 µM [rising, single point]

C=CCNCCOc1ccccc1-c1ccccc1
AC50 [2]: 4.11 µM [rising, single point]
AC50 [1]: 0.0058 µM [falling, full curve, poor fit]

COc1ccc(C(=O)N2CCC(C(=O)Nc3ccc4c(c3)OCCO4)CC2)cc1
cell number change: 70.4%
AC50 [2]: 29.1 µM [rising, single point]
AC50 [1]: 23.1 µM [rising, partial curve]

O=C(Nc1ccc(F)c(Cl)c1)Nc1ccc(Cl)cn1
cell number change: -29.8%
AC50 [1]: 29.1 µM [falling, single point]

Cc1nc(C)c(-c2ccc(SCC(=O)Nc3cccc(Cl)c3)nn2)s1
cell number change: 13.9%
